Measured values taken from PubChem BioAssay AID504444 (National Center for Advancing Translational Sciences (NCATS), 2011).
In all, about 360,000 compounds went through this assay and about 7,500 (2.1%) were called active. Inconclusive results, whose numbers are uncertain, are shown with a selection of clear calls. Calls follow the shape of the dose curve; as a rule, active = well fitted inhibition curve with a large enough effect; inconclusive = small, poorly fitted or top-dose-only effect, or effect the other way; inactive = flat fitted curve, though single readings scatter. A potency beside an inconclusive call is a rough fit, not a confirmed value.

Assay: Nrf2 qHTS screen for inhibitors; also: nearly all actives have a fitted effect of over 60% in size
Conditions: A549 ARE-Fluc reporter, luciferase luminescence, 18-24 h; activity change, negative = inhibition: at 46 µM (top of the series)
How it was run: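 Quantitative HTS in A549 cells stably bearing an antioxidant response element-firefly luciferase construct. Inhibition of Nrf2-driven transcription was scored by luminescence after 18-24 h of compound exposure at 37 °C.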
% is scaled to controls: 0 for no effect and ±100 for the full control effect; potency is read from the fitted curve at half-maximal effect.

Row | SMILES | Potency | activity change, negative = inhibition
1 | O=C(O)CSc1cc(C(=O)c2ccccc2O)cn2c(=O)c3c4c(sc3nc12)CCCC4 | inconclusive: 23.1 µM [falling, partial curve, poor fit] | 
2 | COc1cc(-c2ccc3ncnc(NCc4cccs4)c3c2)cc(OC)c1OC |  | inactive: -17.2%
3 | O=C1C(C2=C(O)c3ccccc3C2=O)=Nc2ccccc21 | inconclusive: 13 µM [falling, partial curve] | 
4 | COc1ccc(CNC(=O)c2cc(-c3ccco3)on2)cc1 | inconclusive: 2.59 µM [activator, single point] | 
5 | COc1cccc(CN(C)CC(=O)Nc2cc(S(=O)(=O)N3CCCC3)ccc2Cl)c1OC | inconclusive: 29.1 µM [falling, single point] | 
6 | Cc1cccc(-c2nc(SCC(=O)Nc3ccc4c(c3)OCO4)c(-c3ccccc3)[nH]2)c1 | inconclusive: 29.1 µM [falling, single point] | 
7 | CN1C(=O)Cc2cc(S(=O)(=O)NCCc3ccccc3)ccc21 | inconclusive: 2.06 µM [falling, partial curve, poor fit] | 
8 | CC1=Cc2ccccc2C(C#N)N1C(=O)c1ccccc1 (stereo not drawn) | inconclusive: 20.6 µM [activator, partial curve] | 
9 | COc1ccc(NC(=O)C2CCCN2S(=O)(=O)c2ccc3nc(-c4ccccc4)[nH]c3c2)cc1 (stereo not drawn) |  | inactive: -3.55%
10 | COc1ccc(C(=O)/C=C/c2ccc(N3CCCCC3)c([N+](=O)[O-])c2)c(OC)c1 | inconclusive: 29.1 µM [falling, single point] | 
11 | COCC(=O)Oc1c(Sc2ccccc2[N+](=O)[O-])c(C)nn1C(C)(C)C | inconclusive: 20.6 µM [falling, partial curve, poor fit] | 
12 | COc1ccc2[nH]c(=O)c(CN(C(C)=O)c3cccc(C)c3)cc2c1 | inconclusive: 18.4 µM [activator, single point] | 
13 | Fc1ccc(Cn2nnnc2C(c2cccs2)N2CCCCCC2)cc1 (stereo not drawn) | inconclusive: 25.9 µM [falling, partial curve, poor fit] | 
14 | CC(C)CCSc1nc2c(c(=O)[nH]c(=O)n2C)n1CCCc1ccccc1 | inconclusive: 20.6 µM [falling, single point] | 
15 | CN(c1ccc(OCC(=O)O)cc1)S(=O)(=O)c1ccc2ccccc2c1 | inconclusive: 23.1 µM [falling, single point] | 
16 | CCN(C(=O)COC(=O)/C=C/c1ccc(C)o1)c1c(N)n(Cc2ccccc2)c(=O)[nH]c1=O |  | inactive: 3.86%
17 | CCN(C(=O)COC(=O)CC(C)c1ccccc1)c1c(N)n(Cc2ccccc2)c(=O)[nH]c1=O (stereo not drawn) | inconclusive: 11.6 µM [falling, partial curve, poor fit] | 
18 | Cc1cc([N+](=O)[O-])nn1Cc1noc(C(=O)NCc2ccc3c(c2)OCO3)n1 | inconclusive: 18.4 µM [falling, partial curve, poor fit] | 
19 | O=C(O)CSCc1nc2ccccc2s1 | inconclusive: 0.184 µM [activator, full curve, poor fit] | 
20 | NS(=O)(=O)c1ccc(CCNCc2ccccc2OCc2ccc(Cl)cc2)cc1 |  | inactive: -22.2%
21 | CN(C)c1ncc(S(=O)(=O)c2ccc(Cl)cc2)c(-c2ccccc2)n1 | inconclusive: 25.9 µM [falling, single point] | 

Row | SMILES | Potency | activity change, negative = inhibition
22 | CC1(c2ccccc2)NC(=O)N(CC(=O)Nc2ccc(Cl)c(S(=O)(=O)N3CCCCC3)c2)C1=O (stereo not drawn) | inconclusive: 29.1 µM [falling, single point] | 
23 | O=c1cc(Nc2ccc3c(c2)OCO3)[nH]c(=O)n1-c1ccc(Br)cc1 | inconclusive: 14.6 µM [falling, partial curve, poor fit] | 
24 | CN1/C(=C\C(=O)COC(=O)c2ccc(O)c(O)c2)C(C)(C)c2ccccc21 | inconclusive: 29.1 µM [falling, single point] | 
25 | COc1cc(CN2CC(=O)N(c3ccccc3Cl)C2=S)cc(OC)c1OC | inconclusive: 23.1 µM [falling, single point] | 
26 | COC(=O)c1ccc(NC(=O)C2CCN(C(=O)c3ccc(F)cc3)CC2)cc1 |  | inactive: 15.2%
27 | O=C(/C=C(\O)c1ccccc1)C(=O)NNC(=O)c1ccccc1 | inconclusive: 2.91 µM [activator, partial curve, poor fit] | 
28 | O=C(Nc1ccccc1Cl)c1cc(=O)c2ccccc2o1 | inconclusive: 14.6 µM [activator, partial curve, poor fit] | 
29 | COc1ccc2cc3cc(C(=O)NCCc4ccc(OC)c(OC)c4)oc3nc2c1 | inconclusive: 3.66 µM [falling, partial curve] | 
30 | N#Cc1cccc(NC(=O)C2CCN(c3ncccn3)CC2)c1 | inconclusive: 10.3 µM [activator, partial curve, poor fit] | 
31 | CCOc1cc(C(=O)Nc2ccc(-c3nc4ncccc4o3)cc2C)cc(OCC)c1OCC | inconclusive: 0.103 µM [falling, partial curve, poor fit] | 
32 | CCC(=O)Nc1cccc(NC(=O)c2ccc3c(c2)OCO3)c1 | inconclusive: 0.0041 µM [falling, full curve, poor fit] | 
33 | O=C(Nc1cccc(S(=O)(=O)N2CCCCC2)c1)c1ccc(Cl)nc1 | active: 20.6 µM | 
34 | Cc1nn2c3ccccc3nc2c2ccccc12 |  | inactive: -6.6%
35 | NC(=S)N/N=C/c1ccc(C(F)(F)F)cc1 | inconclusive: 32.6 µM [falling, single point] | 
36 | Cc1cc(C(=O)COC(=O)COc2ccccc2C#N)c(C)n1CC1CCCO1 (stereo not drawn) | inconclusive: 29.1 µM [activator, partial curve, poor fit] | 
37 | CC(=O)c1ccc(N2CCN(S(=O)(=O)c3ccc(-c4cc(C)no4)s3)CC2)cc1 | inconclusive: 29.1 µM [activator, single point] | 
38 | Cc1cc(C)c(S(=O)(=O)n2cnc(C)c2)c(C)c1 | inconclusive: 29.1 µM [activator, single point] | 
39 | CC1=C(C(=O)OCCCCCl)C(c2cc3c(cc2Br)OCO3)NC(=O)N1 (stereo not drawn) | inconclusive: 23.1 µM [falling, partial curve, poor fit] | 
40 | CC(C)N1CCc2c(sc(NC(=O)c3nc4ccccc4s3)c2C(N)=O)C1 | inconclusive: 6.51 µM [activator, single point] | 
41 | COc1ccc(/C(C)=N/NC(=O)CNC(=O)C2COc3ccccc3O2)c(OC)c1 (stereo not drawn) | inconclusive: 5.8 µM [activator, full curve, poor fit] | 
42 | CCc1nnc(NC(=O)c2ccc(-c3cccc(C(F)(F)F)c3)o2)s1 | inconclusive: 7.31 µM [falling, full curve, poor fit] | 

Row | SMILES | Potency | activity change, negative = inhibition
43 | O=C(Cc1ccsc1)NNC(=O)c1ccc(F)cc1 | inconclusive: 32.6 µM [activator, single point] | 
44 | O=C1CCCCCN1Cc1nnc(SCc2nc3ccccc3s2)n1-c1ccccn1 | inconclusive: 23.1 µM [activator, partial curve] | 
45 | CCOC(=O)C1CCN(S(=O)(=O)c2ccc3c(c2)NC(=O)C(C)C(=O)N3)CC1 (stereo not drawn) | inconclusive: 8.2 µM [falling, partial curve] | 
46 | O=S(=O)(Nc1ccccn1)c1cccc(S(=O)(=O)c2ccc(Cl)cc2)c1 | inconclusive: 9.2 µM [falling, partial curve, poor fit] | 
47 | COc1cc(NS(=O)(=O)c2cc(NC(C)=O)ccc2OC)c(OC)cc1NC(=O)c1ccccc1 | inconclusive: 29.1 µM [falling, partial curve, poor fit] | 
48 | O=C(NC(=S)NNC(=O)c1cccs1)c1ccco1 | inconclusive: 0.164 µM [falling, full curve, poor fit] | 
49 | Nc1cc(-c2ccccc2)ccc1O |  | inactive: 15.8%
50 | CCCCCC(O)c1cccc(OCc2ccc3ccccc3n2)c1 (stereo not drawn) | inconclusive: 25.9 µM [falling, single point] | 
51 | CC(=O)Nc1ccc(NC(=O)C(C)OC(=O)CCC(=O)c2ccc(F)cc2)cc1 (stereo not drawn) | inconclusive: 29.1 µM [activator, single point] | 
52 | Cc1cccc(/C=N/NC(=O)c2cccc([N+](=O)[O-])c2)n1 | inconclusive: 13 µM [falling, partial curve, poor fit] | 
53 | O=C(O)c1cccc(C(=O)O)c1 |  | inactive: 3.64%
54 | COCCN(C(=O)CSc1nc2ccc(C)cc2[nH]1)c1c(N)n(Cc2ccccc2)c(=O)[nH]c1=O |  | inactive: 15.3%
55 | Cc1cc(-c2nnc(CCC(=O)N(C)C(C)c3cccs3)o2)no1 (stereo not drawn) | inconclusive: 29.1 µM [activator, single point] | 
56 | CC(=O)N1CCN(c2ccc(NCc3ccccc3)cc2)CC1 | inconclusive: 0.116 µM [falling, full curve] | 
57 | COc1ccc(Br)cc1/C=N/NC(=O)c1ccc(COc2ccc3c(c2)CCC3)o1 |  | inactive: -4.77%
58 | COc1cccc(-c2coc3c(C)c4oc(=O)c(CCC(=O)O)c(C)c4cc23)c1 | inconclusive: 29.1 µM [falling, single point] | 
59 | Cc1occc1C(=O)NNC(=S)Nc1cccc([N+](=O)[O-])c1 | inconclusive: 2.91 µM [activator, single point] | 
60 | Cn1c(COc2ccc(Br)cc2)nnc1SC1CCc2ccccc2C1=O (stereo not drawn) | inconclusive: 29.1 µM [falling, single point] | 
61 | CCCCn1nc2cc(C(=O)NCc3ccc(C(F)(F)F)cc3C(F)(F)F)ccc2c1OCC | inconclusive: 1.16 µM [falling, partial curve, poor fit] | 
62 | COCCn1nnnc1C(c1cc2c(C)cc(C)cc2[nH]c1=O)N1CCCCCC1 (stereo not drawn) |  | inactive: 10.7%
63 | Cn1c(CN2CCCCC2)nc2cc(NC(=O)c3ccc(F)cc3)ccc21 | active: 11.6 µM | 

Looked up one by one from above:
Row | SMILES | Potency | activity change, negative = inhibition
61 | CCCCn1nc2cc(C(=O)NCc3ccc(C(F)(F)F)cc3C(F)(F)F)ccc2c1OCC | inconclusive: 1.16 µM [falling, partial curve, poor fit] | 
60 | Cn1c(COc2ccc(Br)cc2)nnc1SC1CCc2ccccc2C1=O (stereo not drawn) | inconclusive: 29.1 µM [falling, single point] | 
62 | COCCn1nnnc1C(c1cc2c(C)cc(C)cc2[nH]c1=O)N1CCCCCC1 (stereo not drawn) |  | inactive: 10.7%
57 | COc1ccc(Br)cc1/C=N/NC(=O)c1ccc(COc2ccc3c(c2)CCC3)o1 |  | inactive: -4.77%
